Assay results: paper PMC3843822
No constants are given. Whether binding was seen depends on the method and setting. Binding seen in cells or lysates may run through a third protein. Here binding means that the protein was enriched with, or labelled near, the bait; the list need not be complete. For some of these results: Where a sequence is shown, tags or fusion partners need not be part of it. One block for each molecule: values may come before it.

Protein sequences, listed by entry. Tags and fused reporters are not part of them.
UniProt G5EES3: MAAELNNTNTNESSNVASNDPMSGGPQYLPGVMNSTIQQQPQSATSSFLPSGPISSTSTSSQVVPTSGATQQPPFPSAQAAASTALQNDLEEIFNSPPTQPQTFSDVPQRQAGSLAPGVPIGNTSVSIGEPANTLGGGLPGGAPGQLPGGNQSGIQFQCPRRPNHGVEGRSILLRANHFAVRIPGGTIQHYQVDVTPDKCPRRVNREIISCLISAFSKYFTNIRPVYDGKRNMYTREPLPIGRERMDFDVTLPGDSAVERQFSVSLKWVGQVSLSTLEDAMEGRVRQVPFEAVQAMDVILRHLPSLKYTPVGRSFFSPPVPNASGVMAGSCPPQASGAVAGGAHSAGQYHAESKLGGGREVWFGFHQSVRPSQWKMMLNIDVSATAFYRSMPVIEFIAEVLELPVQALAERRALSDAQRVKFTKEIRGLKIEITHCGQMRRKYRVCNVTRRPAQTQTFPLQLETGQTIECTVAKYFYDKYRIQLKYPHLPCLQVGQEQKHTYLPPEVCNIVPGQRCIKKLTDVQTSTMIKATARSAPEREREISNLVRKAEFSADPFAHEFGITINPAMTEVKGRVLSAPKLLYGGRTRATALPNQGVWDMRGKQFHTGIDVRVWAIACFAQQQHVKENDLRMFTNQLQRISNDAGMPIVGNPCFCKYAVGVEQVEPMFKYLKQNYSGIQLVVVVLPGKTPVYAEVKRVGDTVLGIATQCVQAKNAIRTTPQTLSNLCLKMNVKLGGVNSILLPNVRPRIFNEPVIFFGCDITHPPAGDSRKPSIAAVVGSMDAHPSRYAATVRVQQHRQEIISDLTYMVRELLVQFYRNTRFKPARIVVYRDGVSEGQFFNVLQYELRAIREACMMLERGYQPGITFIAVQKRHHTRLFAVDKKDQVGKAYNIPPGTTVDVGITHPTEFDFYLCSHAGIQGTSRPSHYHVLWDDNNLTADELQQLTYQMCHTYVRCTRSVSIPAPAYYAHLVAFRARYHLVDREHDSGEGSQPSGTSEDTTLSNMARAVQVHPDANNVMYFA

Assays:
[1] = target: T1, GLD-1::GFP fusion protein (C. elegans) (UniProt Q17339); assay: affinity purification with mass spectrometry; GFP-binder pull-down of GLD-1::GFP complexes from gld-1(q485); ozIs2 [gld-1::gfp::FLAG] worms, as described in ref. 31; mass spectrometry
T1 sequence: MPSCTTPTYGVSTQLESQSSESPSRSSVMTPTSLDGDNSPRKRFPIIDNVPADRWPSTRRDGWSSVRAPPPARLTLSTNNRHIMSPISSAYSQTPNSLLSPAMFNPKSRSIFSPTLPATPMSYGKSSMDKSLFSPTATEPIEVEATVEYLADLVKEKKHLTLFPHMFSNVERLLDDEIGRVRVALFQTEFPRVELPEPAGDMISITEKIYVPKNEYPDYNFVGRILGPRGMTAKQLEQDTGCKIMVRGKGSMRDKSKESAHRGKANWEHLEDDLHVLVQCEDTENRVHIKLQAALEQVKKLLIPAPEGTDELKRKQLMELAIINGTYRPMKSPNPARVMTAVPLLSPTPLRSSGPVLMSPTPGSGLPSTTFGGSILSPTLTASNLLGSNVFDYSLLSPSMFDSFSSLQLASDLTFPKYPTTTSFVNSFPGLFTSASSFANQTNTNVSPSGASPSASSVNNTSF

[2] = target: T2, GLD-1 (C. elegans (endogenous in N2 wild-type worms)) (UniProt Q17339); assay: affinity purification with mass spectrometry; rabbit anti-GLD-1 antibody with protein G sepharose beads on 2 mg N2 wild-type worm lysate (10 mM Tris-HCl pH 7.5, 150 mM NaCl, 0.5 mM EDTA, 0.5% NP40), 4°C; washed with 300 mM NaCl; no-Ab beads as mock; SDS gel, silver stain, mass spectrometry
T2 sequence: T1 sequence

Molecule: CEY-2 (C. elegans (endogenous in worms))
binding [1]: binds | binding [2]: binds

Molecule: SQD-1 (C. elegans (endogenous in worms))
binding [1]: binds | binding [2]: binds

Molecule: CEY-4 (C. elegans (endogenous in worms))
binding [1]: binds | binding [2]: binds

B1: PAB-1 (protein, UniProt Q9U302 1-646)
chain: MEMNVAAPAAAVAGAAAPQPGQNQTGSSYTMASLYVGDLHPDVNESILFEKFSAAGPVLSIRVCRDNATRLSLGYAYVNFQQPADAERAMDTMNFEALHGKPMRIMWSQRDPAMRRSGAGNIFIKNLDKVIDNKSIYDTFSLFGNILSCKVAIDEDGFSKGYGFVHFETEEAAQNAIQKVNGMLLAGKKVFVGKFQPRAQRNRELGETAKQFTNVYVKNFGDHYNKETLEKLFAKFGNITSCEVMTVEGKSKGFGFVAFANPEEAETAVQALHDSTIEGTDLKLHVCRAQKKSERHAELKKKHEQHKAERMQKYQGVNLYVKNLDETVDDDGLKKQFESYGNITSAKVMTDENGRSKGFGFVCFEKPEEATSAVTEMNSKMVCSKPLYVAIAQRKEDRRAQLASQYMQRLASMRMHGNVPGAAMYNPTQPGPGYYVANPMQQQRNFAGGQQMVRPGGRWGMQNQYPVQNQYMMAQGPGVYQNRMGRPQNQQGGPRGPPQQYNQVAQGGVRMQGPPRTQNPGVQQQNVPRPPQQQQQQRPAPTGPKAPPQPYQAYQQRPQGIVIGGQEPLTSAMLAAAAPQEQKQLLGERIYALIEKLYPGHKDAGKITGMMLEIDNSELIMMLQDSELFRSKVDEAASVLVSAQKQ
binding [1]: binds | binding [2]: binds

B3: CGH-1 helicase (protein, UniProt Q95YF3 1-430)
chain: MSGAEQQQIVPANNGDENWKAGLNLPAKDRRFKTADVTDTKGVEFEDFCLGRDLLMGIFEKGWEKPSPIQEASIGVALTGQDILARAKNGTGKTGAYCIPVIEKIQPALKAIQAMVIVPTRELALQTSQICVELSKHIQLKVMVTTGGTDLRDDIMRLNGTVHLVIATPGRILDLMEKGVAKMEHCKTLVLDEADKLLSQDFQGILDRLINFLPKERQVMLYSATFPNTVTSFMQKHMHKPYEINLMEELTLLGVTQYYAFVQEKQKVHCLNTLFRKLQINQSIIFCNSTQRVELLAKKITEIGYSCYYIHSKMAQNHRNRVFHDFRQGNCRNLVCSDLLTRGIDIQAVNVVINFDFPRNAETYLHRIGRSGRFGHLGVAINLITYEDRHTLRRIEQELRTRIEPIPKTVDPKLYVADQQLVDAADETTA
binding [1]: binds | binding [2]: binds

More lines, now with the values ahead:

binding [1]: binds | binding [2]: binds
Molecule: CEY-3 (C. elegans (endogenous in worms))

binding [1]: binds | binding [2]: binds
Molecule: ALG-1 (from UniProt G5EES3 1-1023)

binding [1]: binds | binding [2]: binds
B2: CAR-1 (protein, UniProt Q9XW17 1-340)
chain: MSNQTPYIGSKISLISKLDIRYEGILYTVDTNDSTIALAKVRSFGTEKRPTANPVAARDDVYEYIIFKASDIKDLIVCDTPKMANIGGGLPYDPAIISVSSRSAPASDGAPAASAGSSRAGTPSRNSPLGQIIQNQRPGRGGYQQNFQANRGYNNYRGGFAGGYNNQRGHNNYGVPRVNHREKLKFESDFDFEKANEKFQEVLVDNLEKLNIEDKAEPEVEEKKDAAFYDKKTSFFDNISCESLEKAEGKTGRPDWKKERETNQETFGHNAVRSLNYRRGFGGRGRGGNRGYGGYNNGYQHQHQHRGGYNGGYRQNNGGYRRGGYAPRDNQGNTAAAAEQ
